Laboratory results published in PubChem BioAssay AID901 (National Center for Advancing Translational Sciences (NCATS), 2007).
The list shows a part of the results. Shown are side measurements of this screen, not its main read-out; they come without a call. Compounds called inactive in the main read-out are mostly missing here. The note in brackets gives the kind of curve behind each potency; many fits are weak.

Assay: qHTS Assay for Identifying the Cell-Membrane Permeable IMPase Inhibitors
Settings: CHO-M1 cells, IP1 accumulation, HTRF TR-FRET ratio; measured here: donor channel 620 nm AC50
With `CCOC(=O)CSc1nc(-c2ccc3c(c2)OCO3)ccc1C#N` the AC50 was 10000 nM [falling, partial curve, poor fit].
In the case of `COc1ccccc1C(=O)NC(CCSC)C(=O)NCC(c1ccco1)N(C)C` (stereo not drawn), the AC50 is reported as 12600 nM [falling, single point].
For `CCOC(=O)c1c(C)nc2c(c1C)c(=O)oc1ccccc12`, the AC50 was 501 nM [falling, single point].
For `CCn1c(SCC(=O)N2CCCCC2)nc2c(c1=O)SC(C)C2` (stereo not drawn), the AC50 was 5.01 nM [falling, full curve].
In the case of `CCCC(=O)Nc1ccc(NC(=O)c2ccccc2Cl)nc1`, the AC50 is reported as 200 nM [falling, full curve].
With `CC(=O)C(Sc1nc(N2CCOCC2)nc(N2CCOCC2)n1)C(=O)Nc1ccccc1` (stereo not drawn) the AC50 was 1580 nM [rising, partial curve, poor fit].
For `COC(=O)CSc1cc(SCC(=O)OC)c(C#N)c(SCC(=O)OC)c1`, the AC50 was 15.8 nM [falling, full curve, poor fit].
For `O=C(NCC(=O)N(c1cnc2ccccc2c1)C(C(=O)NC1CCCC1)c1ccncc1)c1ccco1` (stereo not drawn), the AC50 was 31600 nM [rising, single point].
With `COCn1c(COc2ccc3ccccc3c2)nc2ccccc21` the AC50 was 31600 nM [falling, single point].
In the case of `COC(=O)c1ccc(NC(=O)CCN2CCCCC2)cc1`, the AC50 is reported as 25100 nM [falling, single point].
For `CCCOc1ccc2c(=O)c(-c3cc(C(=O)OC)oc3C)c(C)oc2c1`, the AC50 was 5010 nM [falling, single point].
For `CCCC(NS(=O)(=O)c1ccc(OC)cc1)C(=O)O` (stereo not drawn), the AC50 was 12.6 nM [rising, partial curve, poor fit].
With `COc1cc(S(=O)(=O)N(Cc2cccs2)CC2CCCO2)ccc1-n1cnnn1` (stereo not drawn) the AC50 was 20 nM [falling, full curve].
For `CCN(CC)S(=O)(=O)c1ccc(OC)c(NC(=O)c2sc3ccccc3c2Cl)c1`, the AC50 was 224 nM [rising, full curve, poor fit].
For `Cc1nc2sc3c(c2c(=O)o1)CCCC3`, the AC50 was 3980 nM [falling, single point].
In the case of `CCOc1cc2oc(=O)c3c(c2cc1Cl)CCC3`, the AC50 is reported as 31600 nM [rising, single point].
With `CCC/C(=N\NC(=O)CNC(=O)/C=C/c1ccco1)c1ccccc1` the AC50 was 15800 nM [falling, single point].
With `O=C(CN1CCC(NC(=O)c2cccc(F)c2)CC1)NCc1ccccc1F` the AC50 was 251 nM [falling, full curve, poor fit].
For `Cc1ccc(-n2ncc(C(=O)N3CCc4ccccc4C3)c2NC(=O)c2ccco2)cc1C`, the AC50 was 794 nM [falling, full curve].
With `COc1ccc(OC)c(NC(=O)C23CCC(C)(C(=O)C2)C3(C)C)c1` (stereo not drawn) the AC50 was 11200 nM [falling, partial curve, poor fit].
With `CC(=O)Nc1ccc(S(=O)(=O)CCC#N)cc1` the AC50 was 79.4 nM [rising, partial curve, poor fit].
In the case of `CCc1nnc(NC(=O)c2cccc(NC(=O)C(C)C)c2)s1`, the AC50 is reported as 2510 nM [rising, partial curve, poor fit].
For `COc1ccc(CNC(=O)CSc2nnnn2Cc2ccccc2)cc1`, the AC50 was 1260 nM [falling, partial curve].
With `O=c1cc(-c2ccc(O)cc2)oc2cc(O)cc(O)c12` the AC50 was 3980 nM [falling, partial curve].
For `Fc1ccc(CNc2nc3ccccc3n3nnnc23)cc1`, the AC50 was 31600 nM [rising, single point].
With `O=C(NNC1=C(C(=O)C(F)(F)F)CCC1)c1cccc(O)c1` the AC50 was 200 nM [rising, single point].
For `CCOC(=O)c1cccc(NC(=O)CSc2nnc(CNc3ccc(C)cc3)n2CC)c1`, the AC50 was 22.4 nM [falling, full curve, poor fit].
In the case of `CCc1ccc(-n2c(SCc3c(C)noc3C)nnc2-c2ccncc2)cc1`, the AC50 is reported as 126 nM [falling, full curve, poor fit].
In the case of `CC(=O)C(N=Nc1ccccc1)(Sc1nnc(-c2ccccc2)n1-c1ccccc1)C(C)=O`, the AC50 is reported as 10000 nM [falling, partial curve].
In the case of `c1csc(-c2nn[nH]n2)c1`, the AC50 is reported as 31600 nM [falling, single point].
With `COc1ccc(CCNC(=O)COc2ncnc3cc([N+](=O)[O-])ccc23)cc1` the AC50 was 15.8 nM [falling, full curve].
With `O=C(Nc1ccc2c(c1)OCCO2)C1CCCN1S(=O)(=O)c1ccc(Cl)cc1` (stereo not drawn) the AC50 was 794 nM [falling, partial curve].
With `Cc1sc(NC(=O)CSc2ncn(-c3ccccc3)n2)nc1-c1ccccc1` the AC50 was 3160 nM [falling, partial curve].
With `COc1ccc(Cl)cc1NC(=O)NCCCl` the AC50 was 31600 nM [rising, single point].
For `COc1cc(CO)ccc1Oc1nnnn1-c1ccc(C(N)=O)cc1`, the AC50 was 158 nM [falling, full curve, poor fit].
In the case of `O=C1c2ccccc2C(=O)N1CC(=O)N1c2ccccc2Sc2ccc(C(F)(F)F)cc21`, the AC50 is reported as 5010 nM [rising, single point].
With `CC(=O)n1nc(-c2cccnc2)nc1N` the AC50 was 12.6 nM [rising, full curve, poor fit].
In the case of `Nn1c(SCC(=O)Nc2ccc3c(c2)OCO3)nnc1-c1ccncc1`, the AC50 is reported as 20 nM [falling, full curve, poor fit].
For `O=c1cc(-c2ccccc2)oc2cc(O[C@@H]3O[C@H](CO)[C@@H](O)[C@H](O)[C@H]3O)c(O)c(O)c12`, the AC50 was 12600 nM [falling, partial curve].
For `CCOC(=O)N1CCC(NC(=O)c2sc3nc4n(c(=O)c3c2C)CCCC4)CC1`, the AC50 was 31600 nM [rising, single point].
In the case of `CCn1c(CNC(=O)COc2ccc(C(C)C)cc2)nnc1SCC(=O)NC1CCCCC1C` (stereo not drawn), the AC50 is reported as 6310 nM [falling, single point].
With `CNC(=O)c1cc2cc(OC)ccc2n1CCN(C)C` the AC50 was 158 nM [rising, full curve].
For `O=C(c1ccc(Br)o1)N1CCN(C/C=C/c2ccccc2)CC1`, the AC50 was 1000 nM [falling, full curve, poor fit].
